Target: T1, HO-1 (rat spleen) (Rattus norvegicus, UniProt P06762)
T1 construct: Spleen microsomes were used as a source of HO-1; from tissue; host or cells: spleen microsomal fraction of adult male Sprague-Dawley rats
T1 sequence (P06762 1-289): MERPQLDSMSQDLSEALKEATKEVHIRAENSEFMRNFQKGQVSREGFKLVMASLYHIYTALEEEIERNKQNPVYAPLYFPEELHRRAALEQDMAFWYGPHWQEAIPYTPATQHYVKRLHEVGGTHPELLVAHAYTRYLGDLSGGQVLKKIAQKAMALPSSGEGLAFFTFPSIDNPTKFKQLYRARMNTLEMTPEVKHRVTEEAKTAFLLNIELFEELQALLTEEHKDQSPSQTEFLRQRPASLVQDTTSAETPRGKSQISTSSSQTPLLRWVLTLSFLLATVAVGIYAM
Assay: HO enzymatic activity in rat spleen microsomal fraction (CO formed from methemalbumin, gas chromatography)
Format: biochemical
Settings: rat spleen microsomes; average ± standard deviation of replicate experiments
Experimental: Incubations for HO activity analysis were done under conditions for which the rate of CO formation (pmol CO×min^−1×mg protein^−1) was linear with respect to time and microsomal protein concentration. Briefly, reaction mixtures (150 μL) consisting of 100 mM phosphate buffer (pH 7.4), 50 μM methemalbumin, and 1 mg/mL protein were pre-incubated with the inhibitors at final concentrations ranging from 0.1-100 μM for 10 minutes at 37° C. Reactions were initiated by adding NADPH at a final concentration of 1 mM and incubations were performed for an additional 15 minutes at 37° C.
Incubations for HO activity analysis were done under conditions for which the rate of CO formation (pmol CO/mg protein/minute) was linear with respect to time and microsomal protein concentration. […] Reactions were stopped by instantly freezing the reaction mixture on pulverized dry ice and CO formation was measured by gas chromatography using a TA 3000R Process Gas Analyzer (Trace Analytical/Ametek, Newark, Del., USA).
The values on the abscissa represent the decimal logarithm of the inhibitor's concentration (in μM), whereas the values of the activity on the ordinate are expressed as a percentage of the control experiments without inhibitor. […]

IC50: > 100 µM
Compound: COc1ccc(CCN2CCC(Nc3nc4ccccc4n3Cc3ccc(F)cc3)CC2)cc1 [Astemizole, reference compound]
